{
  "source": "the supplement of paper PMC8858631",
  "note": "Counter-ions that a name gives are not always drawn. The list shows a part of the results. Rule as the data show it: active = 0.5 or less and inactive = the rest. Repeats are few or missing, and single values can be far off.",
  "data": [
    {"tested_on": "SK-MEL-28", "experiment": "EEF2K protein level normalised to actin (western blot) after treatment (ratio (EEF2K/Actin)); higher = more EEF2K protein remaining (less EEF2K suppression)", "details": "5 µM; 24 h", "values": [
      {"compound": "CC(=O)O[C@H]1C(=O)[C@@]2(C)[C@H]([C@H](OC(=O)c3ccccc3)[C@]3(O)C[C@H](OC(=O)[C@H](O)[C@@H](NC(=O)c4ccccc4)c4ccccc4)C(C)=C1C3(C)C)[C@]1(OC(C)=O)CO[C@@H]1C[C@@H]2O", "note": "[Paclitaxel]", "EEF2K protein level normalised to actin": "inactive: 0.89"},
      {"compound": "COc1cccc2c1C(=O)c1c(O)c3c(c(O)c1C2=O)C[C@@](O)(C(=O)CO)C[C@@H]3O[C@H]1C[C@H](N)[C@@H](O)[C@H](C)O1", "note": "[Epirubicin HCl]", "EEF2K protein level normalised to actin": "inactive: 0.83"},
      {"compound": "CO[C@H]1C[C@@H]2CC[C@@H](C)[C@@](O)(O2)C(=O)C(=O)N2CCCC[C@H]2C(=O)O[C@H]([C@H](C)C[C@@H]2CC[C@@H](OC(=O)C(C)(CO)CO)[C@H](OC)C2)CC(=O)[C@H](C)/C=C(\\C)[C@@H](O)[C@@H](OC)C(=O)[C@H](C)C[C@H](C)/C=C/C=C/C=C/1C", "EEF2K protein level normalised to actin": "inactive: 1.49"},
      {"compound": "CS(=O)(=O)c1ccc(C(=O)Nc2ccc(Cl)c(-c3ccccn3)c2)c(Cl)c1", "note": "[Vismodegib (GDC-0449)]", "EEF2K protein level normalised to actin": "inactive: 0.97"},
      {"compound": "CNC(=O)c1ccc(N2C(=S)N(c3cnc(C#N)c(C(F)(F)F)c3)C(=O)C23CCC3)cc1F", "EEF2K protein level normalised to actin": "inactive: 0.56"},
      {"compound": "CC(C)(C)c1nc(-c2cccc(NS(=O)(=O)c3c(F)cccc3F)c2F)c(-c2ccnc(N)n2)s1", "EEF2K protein level normalised to actin": "inactive: 1.06"},
      {"compound": "N#Cc1ccc(C2CCCc3cncn32)cc1", "note": "(stereo unspecified) [Fadrozole]", "EEF2K protein level normalised to actin": "inactive: 0.72"},
      {"compound": "COc1ccc(S(=O)(=O)N(C(C)=O)c2ccccc2/C=C/c2cc[n+]([O-])cc2)cc1", "EEF2K protein level normalised to actin": "active: 0.3"},
      {"compound": "CNC(=O)c1cc(Oc2ccc(NC(=O)Nc3ccc(Cl)c(C(F)(F)F)c3)cc2)ccn1", "note": "[Sorafenib Tosylate]", "EEF2K protein level normalised to actin": "inactive: 1.44"},
      {"compound": "O=c1[nH]c(=O)n([C@H]2C[C@H](O)[C@@H](CO)O2)cc1F", "note": "[Floxuridine]", "EEF2K protein level normalised to actin": "active: 0.23"},
      {"compound": "N=C1CCCN1Cc1[nH]c(=O)[nH]c(=O)c1Cl.O=c1[nH]c(=O)n([C@H]2C[C@H](O)[C@@H](CO)O2)cc1C(F)(F)F", "EEF2K protein level normalised to actin": "inactive: 1.27"},
      {"compound": "N[C@@H]1CN(c2c(F)cc3c(=O)c(C(=O)O)cn([C@@H]4C[C@@H]4F)c3c2Cl)CC12CC2", "note": "[Sitafloxacin Hydrate]", "EEF2K protein level normalised to actin": "inactive: 1.31"},
      {"compound": "CCc1nc(C(N)=O)c(Nc2ccc(N3CCC(N4CCN(C)CC4)CC3)c(OC)c2)nc1NC1CCOCC1", "note": "[Gilteritinib (ASP2215)]", "EEF2K protein level normalised to actin": "inactive: 4.32"},
      {"compound": "Nc1ccn([C@@H]2O[C@H](CO)[C@@H](O)C2(F)F)c(=O)n1", "note": "[Gemcitabine]", "EEF2K protein level normalised to actin": "active: 0.17"},
      {"compound": "NC(=O)c1cccc2cn(-c3ccc([C@@H]4CCCNC4)cc3)nc12", "note": "[Niraparib (MK-4827) tosylate]", "EEF2K protein level normalised to actin": "inactive: 1.31"},
      {"compound": "CCC1=C[C@@H]2CN(C1)Cc1c([nH]c3ccccc13)[C@@](C(=O)OC)(c1cc3c(cc1OC)N(C)[C@H]1[C@@](O)(C(=O)OC)[C@H](OC(C)=O)[C@]4(CC)C=CCN5CC[C@]31[C@@H]54)C2", "note": "[Vinorelbine Tartrate]", "EEF2K protein level normalised to actin": "inactive: 0.62"},
      {"compound": "NC(=O)c1cccc2cn(-c3ccc([C@@H]4CCCNC4)cc3)nc12", "note": "[Niraparib (MK-4827)]", "EEF2K protein level normalised to actin": "inactive: 0.65"},
      {"compound": "Nc1cc(F)ccc1NC(=O)c1ccc(CNC(=O)/C=C/c2cccnc2)cc1", "note": "[Tucidinostat (Chidamide)]", "EEF2K protein level normalised to actin": "inactive: 0.76"},
      {"compound": "CC(=O)O[C@@]12CO[C@@H]1C[C@H](O)[C@@]1(C)C(=O)[C@H](O)C3=C(C)[C@@H](OC(=O)[C@H](O)[C@@H](NC(=O)OC(C)(C)C)c4ccccc4)C[C@@](O)([C@@H](OC(=O)c4ccccc4)[C@H]21)C3(C)C", "note": "[Docetaxel Trihydrate]", "EEF2K protein level normalised to actin": "active: 0.16"},
      {"compound": "CN(Cc1cnc2nc(N)nc(N)c2n1)c1ccc(C(=O)N[C@@H](CCC(=O)O)C(=O)O)cc1", "note": "[Methotrexate]", "EEF2K protein level normalised to actin": "inactive: 0.91"},
      {"compound": "COc1cccc2c1C(=O)c1c(O)c3c(c(O)c1C2=O)C[C@@](O)(C(C)=O)C[C@@H]3O[C@H]1C[C@H](N)[C@H](O)[C@H](C)O1", "note": "[Daunorubicin HCl]", "EEF2K protein level normalised to actin": "active: 0.11"},
      {"compound": "CNC(=O)c1c(C)oc2cc(Oc3ncnc4cc(OC)c(OC)cc34)ccc12", "note": "[Fruquintinib]", "EEF2K protein level normalised to actin": "inactive: 0.77"},
      {"compound": "COc1cc2nccc(Oc3ccc(NC(=O)NC4CC4)c(Cl)c3)c2cc1C(N)=O", "note": "[Lenvatinib (E7080)]", "EEF2K protein level normalised to actin": "inactive: 1.94"},
      {"compound": "CC(C)[C@H]1C(=O)N[C@@H](CCCN=C(N)N)C(=O)NCC(=O)N[C@@H](CC(=O)O)C(=O)N[C@H](Cc2ccccc2)C(=O)N1C", "EEF2K protein level normalised to actin": "inactive: 1.91"},
      {"compound": "C#Cc1cccc(Nc2ncnc3cc(OCCOC)c(OCCOC)cc23)c1", "note": "[Erlotinib HCl (OSI-744)]", "EEF2K protein level normalised to actin": "inactive: 1.42"},
      {"compound": "CC/C(=C(\\c1ccccc1)c1ccc(OCCN(C)C)cc1)c1ccccc1", "note": "[Tamoxifen]", "EEF2K protein level normalised to actin": "inactive: 1.78"},
      {"compound": "Cc1ccc(NC(=O)c2ccc(CN3CCN(C)CC3)cc2)cc1Nc1nc(-c2cccnc2)cs1", "note": "[Masitinib (AB1010)]", "EEF2K protein level normalised to actin": "inactive: 1.29"},
      {"compound": "Nc1cccc2c1C(=O)N(C1CCC(=O)NC1=O)C2=O", "note": "(stereo unspecified) [Pomalidomide]", "EEF2K protein level normalised to actin": "inactive: 0.81"},
      {"compound": "C=C1c2cccc(O)c2C(=O)C2=C(O)[C@]3(O)C(=O)C(C(N)=O)=C(O)[C@@H](N(C)C)[C@@H]3[C@@H](O)[C@H]12", "note": "[Methacycline HCl]", "EEF2K protein level normalised to actin": "inactive: 0.62"},
      {"compound": "CC[C@@]1(O)C(=O)OCc2c1cc1n(c2=O)Cc2cc3c([N+](=O)[O-])cccc3nc2-1", "note": "[Rubitecan]", "EEF2K protein level normalised to actin": "inactive: 5.85"},
      {"compound": "CO[C@H]1C[C@@H]2CC[C@@H](C)[C@@](O)(O2)C(=O)C(=O)N2CCCC[C@H]2C(=O)O[C@H]([C@H](C)C[C@@H]2CC[C@@H](OP(C)(C)=O)[C@H](OC)C2)CC(=O)[C@H](C)/C=C(\\C)[C@@H](O)[C@@H](OC)C(=O)[C@H](C)C[C@H](C)/C=C/C=C/C=C/1C", "note": "[Ridaforolimus (Deforolimus, MK-8669)]", "EEF2K protein level normalised to actin": "inactive: 1.13"},
      {"compound": "CN(N=O)C(=O)NC1C(O)OC(CO)C(O)C1O", "note": "(stereo unspecified) [Streptozotocin (STZ)]", "EEF2K protein level normalised to actin": "inactive: 1.13"},
      {"compound": "CN(C)/N=N/c1[nH]cnc1C(N)=O", "note": "[Dacarbazine]", "EEF2K protein level normalised to actin": "inactive: 0.73"},
      {"compound": "C=CC(=O)Nc1cccc(Oc2nc(Nc3ccc(N4CCN(C)CC4)cc3)nc3ccsc23)c1", "EEF2K protein level normalised to actin": "inactive: 2.98"},
      {"compound": "CN1C2=CC(=O)/C(=N\\NC(N)=O)C=C2CC1S(=O)(=O)O", "note": "(stereo unspecified) [Carbazochrome sodium sulfonate (AC-17)]", "EEF2K protein level normalised to actin": "active: 0.4"},
      {"compound": "O=C(O)CCCc1ccccc1", "note": "[Sodium Phenylbutyrate]", "EEF2K protein level normalised to actin": "inactive: 1.2"}
    ]}
  ]
}
